# Some of the results follow.
# Target: T1, OsSMF1 (Oryza sativa, UniProt Q6ZLB0 1-436)
# T1 sequence: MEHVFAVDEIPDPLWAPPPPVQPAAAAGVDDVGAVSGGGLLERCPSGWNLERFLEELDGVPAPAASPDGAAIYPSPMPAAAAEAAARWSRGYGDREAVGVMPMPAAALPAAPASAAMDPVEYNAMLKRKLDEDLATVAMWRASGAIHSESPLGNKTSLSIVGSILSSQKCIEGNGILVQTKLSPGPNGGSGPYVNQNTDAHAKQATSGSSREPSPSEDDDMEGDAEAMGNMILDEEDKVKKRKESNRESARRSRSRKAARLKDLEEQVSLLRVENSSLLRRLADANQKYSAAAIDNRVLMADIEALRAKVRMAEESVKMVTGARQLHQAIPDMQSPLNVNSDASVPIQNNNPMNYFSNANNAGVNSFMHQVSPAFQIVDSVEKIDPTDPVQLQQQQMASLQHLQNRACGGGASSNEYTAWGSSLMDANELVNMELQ
# Assay: protein-binding microarray (RPBM); PBS, 2% BSA, 51.3 ng/ul salmon testes DNA, 50 uM zinc acetate, 200 nM TF, 25 C, 1 h; high values mean tight binding
# Conditions: protein: recombinant; tags: N-terminal polyhistidine and DsRed monomer fusion (pET32a); chain copies: 2; label: CyDye5-dUTP incorporated in the synthesized complementary strand; 3' TTTTT single-stranded linker to array surface; dsDNA, one strand shown
# Outline: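 The binding signal is fluorescence intensity per array feature (arbitrary units). Readings came from an Axon 4000B scanner after a washed, 2% BSA-blocked, double-stranded custom Agilent array had been incubated for 1 h at 25 °C with 200 nM protein and 50 µM zinc acetate. The protein was a Ni–NTA-purified transcription factor fused N-terminally to polyhistidine and DsRed, expressed in E. coli BL21-CodonPlus.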
row,Sequence,binding signal
1,CTCAATTATTGTTTCATTGAGCATTGTTTCCTACCATACACGGAGTCACCTAGTGCAG,3700 fluorescence intensity (a.u.)
2,TCTAAACTACAAGATGATAATAATTATTTTCTTAGTCTTTCGGAGTCACCTAGTGCAG,8830 fluorescence intensity (a.u.)
3,TGTACGGATCGTACCTGACTCGTACCTAGCCAGCAGATTTCGGAGTCACCTAGTGCAG,3500 fluorescence intensity (a.u.)
4,CGCGAGGCGACACGCGTGGGCGGGACGTGGCCGCGCGTCGCGGAGTCACCTAGTGCAG,6280 fluorescence intensity (a.u.)
5,CAGCTATATATAGCTGGAGAAGGAGAGGGTGACATCAGCGCGGAGTCACCTAGTGCAG,7160 fluorescence intensity (a.u.)
6,GTTTCGTTGCGAAATCGTCTGTGTTGCGTAAGCAAACCACCGGAGTCACCTAGTGCAG,4040 fluorescence intensity (a.u.)
7,CCGTAGCCACGTACGTAGTTCACACCGGCCCAGTCCGTTGCGGAGTCACCTAGTGCAG,4820 fluorescence intensity (a.u.)
8,AAGCTGCGACGCCACTCGAGGGCACGACACAAGCTGACGTCGGAGTCACCTAGTGCAG,4200 fluorescence intensity (a.u.)
9,CCCATCCTGGGCCACACATGACATGTCGGAGAGAAGGGAGCGGAGTCACCTAGTGCAG,3500 fluorescence intensity (a.u.)
10,CAAACGTGTTAAGGATCCACGTTGCGGCCCATAAAGGCCCCGGAGTCACCTAGTGCAG,4750 fluorescence intensity (a.u.)
11,GAAAGGAAGAGGTGGAGGAAGTGAGACCCACTGACTTGTGCGGAGTCACCTAGTGCAG,24500 fluorescence intensity (a.u.)
12,CGAAACCATAGCTGTACTTATTTTGGAACGGAGGAATTAGCGGAGTCACCTAGTGCAG,4050 fluorescence intensity (a.u.)
13,CGACGGAACGGGCGCTACATCCACGTGGCGTGCCACGTAGCGGAGTCACCTAGTGCAG,12800 fluorescence intensity (a.u.)
14,GCGACTCGGCGTTATCCGCAACACGTGGAGCAAGACGGCCCGGAGTCACCTAGTGCAG,3980 fluorescence intensity (a.u.)
15,TGCTCGCTCTGGACGCGTCGCCGCGCCCGCTCGGCTTCTTCGGAGTCACCTAGTGCAG,3920 fluorescence intensity (a.u.)
16,AGCTTCACGCATGAGTACACGTGCAAAATGAAGCAGCCCCCGGAGTCACCTAGTGCAG,4290 fluorescence intensity (a.u.)
17,AAAGTTCGATAACATTTCATGGATTAGAGTACTCATCGATCGGAGTCACCTAGTGCAG,3640 fluorescence intensity (a.u.)
18,CCAAAACCTTGTTTGATTGTGATCTTGCCTACGTGGCATACGGAGTCACCTAGTGCAG,25600 fluorescence intensity (a.u.)
19,AGTACTGTGTGAGCGGTGAGGTGGCGGCGGCTGGTGGATCCGGAGTCACCTAGTGCAG,4640 fluorescence intensity (a.u.)
20,CATGGTGCTTACGTGATTATGTTGACCTAGATTTTATTCCCGGAGTCACCTAGTGCAG,4540 fluorescence intensity (a.u.)
21,TGGTTTTATTCGTCTAGCCCAATCTGACCGTGACCTATTCCGGAGTCACCTAGTGCAG,3300 fluorescence intensity (a.u.)

# 12 entries from above in a different format.
row | Sequence | binding signal
1 | CTCAATTATTGTTTCATTGAGCATTGTTTCCTACCATACACGGAGTCACCTAGTGCAG | 3700 fluorescence intensity (a.u.)
2 | TCTAAACTACAAGATGATAATAATTATTTTCTTAGTCTTTCGGAGTCACCTAGTGCAG | 8830 fluorescence intensity (a.u.)
3 | TGTACGGATCGTACCTGACTCGTACCTAGCCAGCAGATTTCGGAGTCACCTAGTGCAG | 3500 fluorescence intensity (a.u.)
4 | CGCGAGGCGACACGCGTGGGCGGGACGTGGCCGCGCGTCGCGGAGTCACCTAGTGCAG | 6280 fluorescence intensity (a.u.)
5 | CAGCTATATATAGCTGGAGAAGGAGAGGGTGACATCAGCGCGGAGTCACCTAGTGCAG | 7160 fluorescence intensity (a.u.)
6 | GTTTCGTTGCGAAATCGTCTGTGTTGCGTAAGCAAACCACCGGAGTCACCTAGTGCAG | 4040 fluorescence intensity (a.u.)
7 | CCGTAGCCACGTACGTAGTTCACACCGGCCCAGTCCGTTGCGGAGTCACCTAGTGCAG | 4820 fluorescence intensity (a.u.)
8 | AAGCTGCGACGCCACTCGAGGGCACGACACAAGCTGACGTCGGAGTCACCTAGTGCAG | 4200 fluorescence intensity (a.u.)
9 | CCCATCCTGGGCCACACATGACATGTCGGAGAGAAGGGAGCGGAGTCACCTAGTGCAG | 3500 fluorescence intensity (a.u.)
10 | CAAACGTGTTAAGGATCCACGTTGCGGCCCATAAAGGCCCCGGAGTCACCTAGTGCAG | 4750 fluorescence intensity (a.u.)
11 | GAAAGGAAGAGGTGGAGGAAGTGAGACCCACTGACTTGTGCGGAGTCACCTAGTGCAG | 24500 fluorescence intensity (a.u.)
12 | CGAAACCATAGCTGTACTTATTTTGGAACGGAGGAATTAGCGGAGTCACCTAGTGCAG | 4050 fluorescence intensity (a.u.)

# Next entries:

row,Sequence,binding signal
1,ATGGAGAAATCCTCAAATATAAGTTTGTATACCCACGTGTCGGAGTCACCTAGTGCAG,7290 fluorescence intensity (a.u.)
2,CTAAGGTAGACATTGGGACAACTCCCATCTCACACTATTTCGGAGTCACCTAGTGCAG,18200 fluorescence intensity (a.u.)
3,CGCGGATCGGCGCGCCACGTGTACGGCCATGATTCATCTCCGGAGTCACCTAGTGCAG,11400 fluorescence intensity (a.u.)
4,CACCCGCCATCGTGGCGGACATTCCAGTATAGGTACGGCACGGAGTCACCTAGTGCAG,6150 fluorescence intensity (a.u.)
5,TTTCTGAAACTGATGCGTCAGCTCCATCATATCACGAAGACGGAGTCACCTAGTGCAG,6880 fluorescence intensity (a.u.)
6,CACCTTCTTCAAGCTCCCTCCTCTGAAGCCTCTTCTTCTTCGGAGTCACCTAGTGCAG,34900 fluorescence intensity (a.u.)
7,ACAGCCACTGTGTTGTGCGCACGTGTAGCACGCGCTGGACCGGAGTCACCTAGTGCAG,4900 fluorescence intensity (a.u.)
8,AAGCCCCGTGCGTATGTTCACGGCGTGGCAGTAATGTAGCCGGAGTCACCTAGTGCAG,31500 fluorescence intensity (a.u.)
9,CAATTCTGAGTTCTGACGGAAATTGCCCTTATCATTTTCGCGGAGTCACCTAGTGCAG,3820 fluorescence intensity (a.u.)
10,GTCAAAATTTGTAGTACTAAGATACGTCATATGCATCTAACGGAGTCACCTAGTGCAG,6620 fluorescence intensity (a.u.)
11,CACAATAATTACTACTCCCTCCGTCCCAGAATATACTAATCGGAGTCACCTAGTGCAG,18500 fluorescence intensity (a.u.)
12,AATGTCACGCCTCCATGTGTCCACGTAGCTTATTATGCAGCGGAGTCACCTAGTGCAG,6800 fluorescence intensity (a.u.)
13,ATTTGGAAGAATTGTTGACTTGGTTTGATAGTTTCTCATACGGAGTCACCTAGTGCAG,34900 fluorescence intensity (a.u.)
14,TCGAATGTTGGAAATAAACACGTCATGGTGTATTCCTGGCCGGAGTCACCTAGTGCAG,18300 fluorescence intensity (a.u.)
15,GCGGCAGCGACGGCGGCGGCGGCTAGTGACGGTGGCGGATCGGAGTCACCTAGTGCAG,3340 fluorescence intensity (a.u.)
16,AAATTTGCCACCCGGCTACACGCGCGGCCCAAGGTTGTGGCGGAGTCACCTAGTGCAG,3200 fluorescence intensity (a.u.)
17,TAGTAGACTAGCAGGAGTCCACATCGTCCCATCAACGCTGCGGAGTCACCTAGTGCAG,3190 fluorescence intensity (a.u.)
18,CTAGTGTGTGTCCTCTCACTTCTTACTCTCCGTGTATTTTCGGAGTCACCTAGTGCAG,3310 fluorescence intensity (a.u.)
19,TCCCTGATATGTAAGTCCCACAAGCTGACTCAGCTAGAGTCGGAGTCACCTAGTGCAG,11000 fluorescence intensity (a.u.)
20,GGCAATCATCTTGAAGCATATCAACCCAACCTGATGTTGTCGGAGTCACCTAGTGCAG,28100 fluorescence intensity (a.u.)
21,TATTAGGTTTGTGGTATCCATAACCCTGACACATCCCTTCCGGAGTCACCTAGTGCAG,4110 fluorescence intensity (a.u.)
